Assay results: paper PMC12695660, “Genome-scale CRISPR screens identify PTGES3 as a direct modulator of androgen receptor function in advanced prostate cancer”
These are yes or no findings as the source states them, for the method shown. Binding can be weak; no strength is given. Tags and fused reporters may be left off the sequences shown.

Target: AR_(ΔNTD), recombinant mouse AR lacking the N-terminal domain (mouse)
Test: mass photometry; Refeyn TwoMP; proteins at 5 uM incubated on ice for 30 min in DNA binding buffer in the presence or absence of ARE DNA, flash diluted into PBS to 10 nM; both purified

binding: binds
B1: Smt3-tagged full-length human PTGES3 (protein, UniProt Q15185 1-160)
chain: MQPASAKWYDRRDYVFIEFCVEDSKDVNVNFEKSKLTFSCLGGSDNFKHLNEIDLFHCIDPNDSKHKRTDRSILCCLRKGESGQSWPRLTKERAKLNWLSVDFNNWKDWEDDSDEDMSNFDRFSEMMNNMGGDEDVDLPEVDGADDDSQDSDDEKMPDLE
